Publication PMC9691770
For at least one entry, the source does not settle the construct or the ends of the probe. For part of these data: Negatives hold for the conditions tested. At least one verdict was read from the data and is not stated in words by the source.

Tested on: GST-MaAP2a-R2
Assay: EMSA
Conditions: Chemiluminescent EMSA Kit (Beyotime) per manual; pH and temperature not stated; recombinant protein; protein details: N-terminal GST (pGEX-4T-1); label: biotin 3' end

Q: Does “AAGGAAAAAAGAATCTAGAAAACAACAAACCCTAAGTCTCTTGAGAGTTTGGGGGTTCT (double strand) [MaBAM3 probe]” bind?
A: binds

Q: Does “ACAAATAAATTATGGTGCCATGTTTATTTGTTTTTTTACAGGATAAATAATAAAGACGA (double strand) [MaAMY3C probe]” bind?
A: binds

Q: Does “ACATAGATATTTTTTTCCGCTCATGAGAGGGCGGCGGCGCGCACTACTGGACGTTAGGT (double strand) [MaLSF1 probe]” bind?
A: binds

Q: Does “ACCAAAAAGAAGTTCCTTGTTTTGTCTTTTTGTTGGCTAAATCTTTTGCATCTTTAGTT (double strand) [MaAMY2B probe]” bind?
A: binds

Q: Does “ATGGTGTGTGGCCGCCATCATTCTCTCCCAAGCAACCACGTGTAAACAAAAATATCACG (double strand) [MaGWD1 probe]” bind?
A: binds

Q: Does “CACGATATAATCCACAAGGCCTAGAACAAAGGCAACACTAAGAACACCGAACTGGAACA (double strand) [MapGlcT2-1 probe]” bind?
A: binds

Q: Does “CCTTGCGCTCCAATCGAACGGGACCGGCGGCTTGGTCATTGATTCCGGCACCACCTTT (double strand) [MaBAM2 probe]” bind?
A: binds

Q: Does “CGACATCACCTCTCTCTCTCTCGCTTTTTGTTCTTTTCATCATATTCGAATTCATTGGC (double strand) [MaAMY2C probe]” bind?
A: binds

Q: Does “CTATGCTAACTCAATTAGAAGCTCATTGAGTTTGTTCTGGGATTGAGTTGGGCTCGTTA (double strand) [MaSEX4 probe]” bind?
A: binds

Q: Does “GATTTGCAATATCTGAGAAATGCTTTATTTTGTTGCTTTGGCTGTCCAGGGACATTGTG (double strand) [MaPWD1 probe]” bind?
A: binds

Q: Does “TACCCCCCGCCTCCGGCCGCCGCCGGCACCCGTCTGCCCGCCGCCGACGCTGCCCGAG (double strand) [MaBAM1 probe]” bind?
A: binds

Q: Does “TACGTATATGTGTTGTGTATAATGGATTTGTTTGTAGATTGGATCTCCTCCAAGCTTTG (double strand) [MaMEX1 probe]” bind?
A: binds

Q: Does “TCTTTCTATTATTTCTTTCTAAAACATTTGTTTCCTTCGATTTTCTTATTCGGTTCTCT (double strand) [MaMEX2 probe]” bind?
A: binds

Q: Does “TTAGCACCGGCCGCGCTCCCTTTCCCGGTTTGTTCGGCGACGCGGGGGGAAGGGAGACC (double strand) [MapGlcT2-2 probe]” bind?
A: binds

Q: Does “TTTTTGTGGTGTATGGTGACTTGTTATTTTGTTTCTTTTCATGTAGATATCTGTTTATA (double strand) [MaAMY3A probe]” bind?
A: binds

Tested on: GST-MaAP2a-R2
Assay: competition with a labelled probe
Conditions: Chemiluminescent EMSA Kit (Beyotime) per manual; pH and temperature not stated; recombinant protein; protein details: N-terminal GST (pGEX-4T-1)

Q: Does “AAGGAAAAAAGAATCTAGAAAACCACACACCCTAAGTCTCTTGAGAGTTTGGGGGTTCT (double strand) [MaBAM3 mprobe]” bind?
A: no binding

Q: Does “ACAAATAAATTATGGTGCCATGTTTATGTGTGTTTTTACAGGATAAATAATAAAGACGA (double strand) [MaAMY3C mprobe]” bind?
A: no binding

Q: Does “ACATAGATATTTTTTTCCGCTCATGAGAGTTTTTTGGCGCGCACTACTGGACGTTAGGT / ACCTAACGTCCAGTAGTGCGCAAAAAAGCCCTCTCATGAGCGGAAAAAAATATCTATGT [MaLSF1 mprobe]” bind?
A: no binding

Q: Does “ACCAAAAAGAAGTTCCTTGTTTTGTCTTTGTGTGGGCTAAATCTTTTGCATCTTTAGTT (double strand) [MaAMY2B mprobe]” bind?
A: no binding

Q: Does “ATGGTGTGTGAAAAAAATCATTCTCTCCCAAGCAACCACGTGTACACACAAATATCACG (double strand) [MaGWD1 mprobe]” bind?
A: no binding

Q: Does “CACGATATAATCCACAAGGCCTAGCACACAGGCAACACTAAGAACACCGAACTGGAACA (double strand) [MapGlcT2-1 mprobe]” bind?
A: no binding

Q: Does “CCTTGCGCTCCAATCGAACGGGACCTTTTTTTTGGTCATTGATTCCGGCACCACCTTT (double strand) [MaBAM2 mprobe]” bind?
A: no binding

Q: Does “CGACATCACCTCTCTCTCTCTCGCTTTGTGTGCTTTTCATCATATTCGAATTCATTGGC (double strand) [MaAMY2C mprobe]” bind?
A: no binding

Q: Does “CTATGCTAACTCAATTAGAAGCTCATTGAGTGTGTGCTGGGATTGAGTTGGGCTCGTTA (double strand) [MaSEX4 mprobe]” bind?
A: no binding

Q: Does “GATTTGCAATATCTGAGAAATGCTTTATTGTGTGGCTTTGGCTGTCCAGGGACATTGTG (double strand) [MaPWD1 mprobe]” bind?
A: no binding

Q: Does “TACCCCCCGCCTCCGAAAAAAGCCGGCACCCGTCTGCCCAAAAAAGACGCTGCCCGAG / CTCGGGCAGCGTCTTTTTTGGGCAGACGGGTGCCTTTTTTGGCCGGAGGCGGGGGGTA [MaBAM1 mprobe]” bind?
A: no binding

Q: Does “TACGTATATGTGTTGTGTATAATGGATGTGTGTGTAGATTGGATCTCCTCCAAGCTTTG (double strand) [MaMEX1 mprobe]” bind?
A: no binding

Q: Does “TCTTTCTATTATTTCTTTCTAAAACATGTGTGTCCTTCGATTTTCTTATTCGGTTCTCT (double strand) [MaMEX2 mprobe]” bind?
A: no binding

Q: Does “TTAGCACCGGCCGCGCTCCCTTTCCCGGTGTGTGCGGCGACGCGGGGGGAAGGGAGACC (double strand) [MapGlcT2-2 mprobe]” bind?
A: no binding

Q: Does “TTTTTGTGGTGTATGGTGACTTGTTATTGTGTGTCTTTTCATGTAGATATCTGTTTATA (double strand) [MaAMY3A mprobe]” bind?
A: no binding
